Laboratory results as given in PMC8396340.
For at least one entry, the source does not settle the construct or the ends of the probe. Where cells or extracts were used, other partners may take part. Negatives hold for the conditions tested. For part of these data: At least one verdict rests on a figure or table, not on a statement of the authors. For part of these data: The comparison behind a weaker result is the experiment's own reference, which may not be listed here.

Protein sequences, listed by entry. Tags and fused reporters are not part of them.
UniProt Q62351, whole entry: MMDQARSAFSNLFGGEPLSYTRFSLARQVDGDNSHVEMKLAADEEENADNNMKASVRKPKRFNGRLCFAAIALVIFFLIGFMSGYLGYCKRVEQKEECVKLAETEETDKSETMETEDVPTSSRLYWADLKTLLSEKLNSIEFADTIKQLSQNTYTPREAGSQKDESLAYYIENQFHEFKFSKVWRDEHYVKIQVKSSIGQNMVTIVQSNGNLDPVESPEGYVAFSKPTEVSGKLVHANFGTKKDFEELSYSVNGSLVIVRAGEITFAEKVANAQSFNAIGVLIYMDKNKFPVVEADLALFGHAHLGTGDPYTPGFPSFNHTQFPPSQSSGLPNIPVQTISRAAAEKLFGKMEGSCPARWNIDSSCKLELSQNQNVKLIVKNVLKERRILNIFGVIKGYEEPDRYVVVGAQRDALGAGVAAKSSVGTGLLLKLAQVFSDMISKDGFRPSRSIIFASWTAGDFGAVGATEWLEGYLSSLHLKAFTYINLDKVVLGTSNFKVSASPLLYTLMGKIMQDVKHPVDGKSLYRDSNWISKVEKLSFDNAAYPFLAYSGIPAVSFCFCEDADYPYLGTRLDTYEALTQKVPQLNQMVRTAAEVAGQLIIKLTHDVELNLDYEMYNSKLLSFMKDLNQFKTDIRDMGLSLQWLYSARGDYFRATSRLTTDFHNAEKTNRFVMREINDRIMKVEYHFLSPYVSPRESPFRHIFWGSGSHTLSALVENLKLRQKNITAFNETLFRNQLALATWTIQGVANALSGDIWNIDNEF
UniProt Q07891, whole entry: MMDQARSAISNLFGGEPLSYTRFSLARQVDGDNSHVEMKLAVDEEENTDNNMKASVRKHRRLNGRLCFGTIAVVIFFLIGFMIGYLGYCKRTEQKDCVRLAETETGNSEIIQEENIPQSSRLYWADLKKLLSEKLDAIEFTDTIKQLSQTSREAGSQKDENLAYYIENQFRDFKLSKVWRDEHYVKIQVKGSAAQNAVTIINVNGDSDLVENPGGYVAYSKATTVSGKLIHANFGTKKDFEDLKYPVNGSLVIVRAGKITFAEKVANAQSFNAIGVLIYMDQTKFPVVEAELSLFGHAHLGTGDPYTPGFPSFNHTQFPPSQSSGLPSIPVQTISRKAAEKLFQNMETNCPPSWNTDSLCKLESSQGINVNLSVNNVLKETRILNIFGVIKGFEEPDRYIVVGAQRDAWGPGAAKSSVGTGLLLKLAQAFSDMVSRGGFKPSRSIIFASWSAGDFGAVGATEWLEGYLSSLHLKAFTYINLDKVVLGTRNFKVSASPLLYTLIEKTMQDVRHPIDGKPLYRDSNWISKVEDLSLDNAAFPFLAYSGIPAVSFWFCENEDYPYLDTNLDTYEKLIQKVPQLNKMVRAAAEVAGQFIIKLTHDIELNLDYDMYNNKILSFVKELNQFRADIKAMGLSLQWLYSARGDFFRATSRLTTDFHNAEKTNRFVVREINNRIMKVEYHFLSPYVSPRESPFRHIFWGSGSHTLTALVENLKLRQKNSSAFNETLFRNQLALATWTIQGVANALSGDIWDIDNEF
UniProt Q99376, whole entry: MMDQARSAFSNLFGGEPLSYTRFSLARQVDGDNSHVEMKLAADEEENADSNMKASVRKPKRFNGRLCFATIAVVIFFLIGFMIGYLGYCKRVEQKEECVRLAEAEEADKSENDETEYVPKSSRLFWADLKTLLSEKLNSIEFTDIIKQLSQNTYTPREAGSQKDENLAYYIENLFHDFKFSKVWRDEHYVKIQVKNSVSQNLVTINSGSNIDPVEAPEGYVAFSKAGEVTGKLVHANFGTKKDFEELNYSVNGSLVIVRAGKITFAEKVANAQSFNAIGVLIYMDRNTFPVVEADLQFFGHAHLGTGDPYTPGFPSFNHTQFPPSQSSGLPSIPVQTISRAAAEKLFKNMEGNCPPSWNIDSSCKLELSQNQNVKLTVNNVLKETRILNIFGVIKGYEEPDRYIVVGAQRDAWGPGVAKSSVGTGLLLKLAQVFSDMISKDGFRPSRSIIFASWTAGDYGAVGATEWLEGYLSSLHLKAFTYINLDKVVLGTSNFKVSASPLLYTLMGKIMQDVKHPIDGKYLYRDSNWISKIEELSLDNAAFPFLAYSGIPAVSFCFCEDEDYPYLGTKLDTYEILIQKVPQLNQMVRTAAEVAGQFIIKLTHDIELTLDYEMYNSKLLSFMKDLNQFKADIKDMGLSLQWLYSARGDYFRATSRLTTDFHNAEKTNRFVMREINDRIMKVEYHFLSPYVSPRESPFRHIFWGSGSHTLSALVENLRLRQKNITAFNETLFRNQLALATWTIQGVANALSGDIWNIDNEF

How the values were obtained:
[1] = biological target: Transferrin receptor (mouse, 4T1 cells) (Mus musculus) (UniProt Q62351); test: flow cytometry cell binding; conditions: 4T1 cells; PBS, 4.5 g/L glucose, 5 mM MgCl2, 1 mg/mL BSA, 0.1 mg/mL herring sperm DNA; 30 min on ice (4 C); intact cells, flow cytometry; protein on the cell surface; label: 5' fluorophore (FITC, FAM, Cy5 or AF647); folded or branched DNA
[2] = biological target: Transferrin receptor 1 (TfR, CD71) (Homo sapiens) (UniProt P02786); test: flow cytometry cell binding; conditions: PBS, 4.5 g/L glucose, 5 mM MgCl2, 1 mg/mL BSA, 0.1 mg/mL herring sperm DNA, 30 min on ice (4 C), intact cells
[3] = biological target: Transferrin receptor (Chinese hamster, CHO-K1 cells) (Cricetulus griseus) (UniProt Q07891); test: flow cytometry cell binding; conditions: CHO-K1 cells; PBS, 4.5 g/L glucose, 5 mM MgCl2, 1 mg/mL BSA, 0.1 mg/mL herring sperm DNA; 30 min on ice (4 C); intact cells, flow cytometry; protein on the cell surface; label: 5' fluorophore (FITC, FAM, Cy5 or AF647); folded or branched DNA
[4] = biological target: Transferrin receptor (rat, PC-12 cells) (Rattus norvegicus) (UniProt Q99376); test: flow cytometry cell binding; conditions: PC-12 cells; PBS, 4.5 g/L glucose, 5 mM MgCl2, 1 mg/mL BSA, 0.1 mg/mL herring sperm DNA; 30 min on ice (4 C); intact cells, flow cytometry; protein on the cell surface; label: 5' fluorophore (FITC, FAM, Cy5 or AF647); folded or branched DNA
[5] = biological target: Transferrin receptor 1 (TfR, CD71) (Homo sapiens) (UniProt P02786); test: competition (flow cytometry); conditions: HeLa cells, 200 nM aptamer, PBS, 4.5 g/L glucose, 5 mM MgCl2, 1 mg/mL BSA, 0.1 mg/mL herring sperm DNA, 30 min on ice (4 C), intact cells, protein on the cell surface, label: 5' fluorophore (FITC, FAM, Cy5 or AF647), folded or branched DNA
[6] = HCT-8T cells, end truncation, flow cytometry, protein on the cell surface, label: 5' fluorophore, folded or branched DNA

## GGATAGGGATTCTGTTGGTCGGCTGGTTGGTATCC [HG1-9]
[1]
  binding result: no binding
[2]; EDTA, flow cytometry, protein on the cell …, label: 5' fluorophore (FITC, FAM, Cy5 or AF647), folded or branched DNA
  binding result: binds more weakly
[2]; no MgCl2, flow cytometry, protein on the cell surface, label: 5' fluorophore (FITC, FAM, Cy5 or AF647), folded or branched DNA
  binding result: binds more weakly
[3]
  binding result: no binding
[4]
  binding result: no binding
[5]; 500 nM bovine transferrin
  binding result: binds
[5]; 500 nM holo-hTf competitor
  binding result: no binding

## AGGAGCAGCGTGGAGGATGTTGGTCGGCTGGTTGGTATCCTTAGGGTGTG [HG1-2]
[2]; HCT-8T cells, middle deletion, flow cytometry, protein on the cell surface, label: 5' fluorophore, folded or branched DNA
  binding result: no binding

## AGGAGCAGCGTGGAGGATAGGGATTCTGTTGGTCGGCTGGTTGGTATCC [HG1-3]
[2]; [6]
  binding result: binds

## AGGAGCAGCGTGGAGGATAGGGATTCTGTTGGTCGGCTGGTTGGTATCCTTAGGGTGTG [HG1-1]
[2]; [6]
  binding result: binds

## GTGGAGGATAGGGATTCTGTTGGTCGGCTGGTTGGTATCC [HG1-8]
[2]; [6]
  binding result: binds

## GGCGACGGATTCTGTTGGTCGGCTGGTTGGTCGCC [HG1-11]
[2]; loop L1 mutant, binding lost, flow cytometry, protein on the cell surface, label: 5' fluorophore, folded or branched DNA
  binding result: no binding

## GTGGAGGATAGGGATTCTGTTGGTCGGCTGGTTGGTATCCTTAGGGTGTG [HG1-4]
[2]; [6]
  binding result: binds

## GGCGAGGGATTCTGTTGGTCGGCTGGTTGGTCGCC [HG1-10]
[2]; stem S1 mutant, slightly affected, flow …, protein on the cell surface, label: 5' fluorophore, folded or branched DNA
  binding result: binds

## AGAGCAGCGTGGAGGATAGTTGGGGTTTGGCAAGTATTG [ctr sq]
[2]; negative control, Jurkat and HeLa cells, flow cytometry, protein on the cell surface, label: 5' fluorophore, single-stranded DNA
  binding result: no binding
